From PubChem BioAssay AID540276 (National Center for Advancing Translational Sciences (NCATS), 2011)
The whole screen tested about 300,000 compounds, of which about 5,400 (1.8%) were called active. Inconclusive means that the source gave no clear call. Such entries were picked first, then a sample of the others. Calls follow the shape of the full dose curve; tested in HEK293 cells. Potencies beside an inconclusive call are fits to weak or partial responses and may not hold up.

Test: qHTS for inhibitors of binding or entry into cells for Marburg Virus
Conditions: Marburg virus pseudotyped entry inhibition, cell reporter; activity change, negative = inhibition: at 37.8 µM (top of the series) unless noted
% is scaled to controls: 0 for no effect and ±100 for the full control effect; potency is read from the fitted curve at half-maximal effect.

Row | SMILES | Potency | activity change, negative = inhibition
1 | CC1(C(=O)NC2CCCCC2)Cc2ccccc2C(=O)N1Cc1ccccc1Cl (stereo unspecified) | inconclusive: 3.16 µM [inhibitor, single point] | 
2 | COc1cc(NC(=O)CCc2nc3cccnc3n2Cc2cccs2)cc(OC)c1OC | inconclusive: 35.5 µM [inhibitor, single point] | 
3 | Cc1cc(S(=O)(=O)N2CCN(c3c(C)cccc3C)CC2)ccc1F | inconclusive: 35.5 µM [inhibitor, single point] | 
4 | CCc1ccc(OCc2nc(-c3ccc(OC)c(OC)c3)no2)c(Br)c1 | inconclusive: 10 µM [inhibitor, partial curve, poor fit] | 
5 | Cc1ccc(C(=O)Nc2ccc3c(c2)C(=O)N(CC2CCCO2)C3=O)cc1 (stereo unspecified) |  | inactive: -11.3%
6 | Cc1[nH]n(-c2ccccc2)c(=O)c1C=Nc1ccc2[nH]c(=O)[nH]c2c1 |  | inactive: 8.74%
7 | Cc1n[nH]c(=O)c2c(NC(=O)CSc3nnnn3-c3ccc(O)cc3)oc(C)c12 | inconclusive: 35.5 µM [activator, single point] | 
8 | CCOc1cc(CNCCc2ccc(S(N)(=O)=O)cc2)cc(Cl)c1OCc1ccccc1 | inconclusive: 29.1 µM [inhibitor, single point] | 
9 | COc1ccc(CNC(=O)c2ccc(NC(=O)CC3SC(N4CCCCC4)=NC3=O)cc2)cc1 (stereo unspecified) | inconclusive: 35.5 µM [activator, partial curve, poor fit] | 
10 | Cc1ccc(-c2nc(CN3CCCCC3)cc(CN3CCCCC3)c2O)cc1 | inconclusive: 12.6 µM [inhibitor, partial curve, poor fit] | 
11 | CC(=O)c1cccc(NC(=O)COC(=O)[C@@H](NC(=O)OCc2ccccc2)C(C)C)c1 | inconclusive: 1.41 µM [activator, partial curve, poor fit] | 
12 | Cc1ccc(C(=O)NCCNc2ncc(C(F)(F)F)cc2Cl)cc1[N+](=O)[O-] | inconclusive: 11.2 µM [inhibitor, single point] | 
13 | O=C(NCCNc1ccc([N+](=O)[O-])cc1C(F)(F)F)c1ccccc1 | inconclusive: 0.891 µM [inhibitor, full curve, poor fit] | 
14 | Cc1nc2n(c(=O)c1CCN1CCC(c3noc4cc(F)ccc34)CC1)CCCC2 | active: 11.2 µM | 
15 | COc1ccccc1N(CC(=O)Nc1ccc(S(=O)(=O)N2CCOCC2)cc1)S(C)(=O)=O | inconclusive: 0.562 µM [inhibitor, full curve, poor fit] | 
16 | COc1ccc(Cn2nc(-c3ccccc3)c(N3CCCCC3)cc2=O)cc1 | inconclusive: 7.08 µM [inhibitor, full curve, poor fit] | 
17 | CCN(CC(=O)Nc1c(F)cccc1F)C(=O)COc1ccc2c(c1)CCC2 | inconclusive: 2.24 µM [activator, partial curve, poor fit] | 
18 | Cc1ccsc1/C=N/Nc1nc(=O)[nH]nc1C | inconclusive: 14.1 µM [inhibitor, single point] | 
19 | Cc1ccc(C)c(Cn2c(=O)n(CCC(=O)NCc3ccco3)c(=O)c3ccccc32)c1 | inconclusive: 0.501 µM [activator, partial curve, poor fit] | 
20 | CC(=O)N(C)c1ccc(N=Nc2ccc3ncccc3c2)cc1 | inconclusive: 6.31 µM [inhibitor, full curve, poor fit] | 
21 | CCN1CCN(c2ccc(S(=O)(=O)N3CCCCC3)cc2NC(=O)COc2ccccc2)CC1 | inconclusive: 35.5 µM [inhibitor, single point] | 
22 | CCC(C(=O)O/N=C(\N)c1ccc(C)cc1)c1ccccc1 (stereo unspecified) | inconclusive: 14.1 µM [inhibitor, partial curve, poor fit] | 

Row | SMILES | Potency | activity change, negative = inhibition
23 | COc1ccccc1NC(=S)N(CCN1CCCCCC1)Cc1cccs1 | inconclusive: 11.2 µM [inhibitor, partial curve, poor fit] | 
24 | Cc1ccccc1-c1n[nH]c(=S)n1/N=C/c1c(C)nn(-c2ccccc2)c1C | inconclusive: 17.8 µM [inhibitor, single point] | 
25 | OC(c1cc(C(F)(F)F)nc2c(Cl)cc(Cl)cc12)C1CCCCN1 (stereo unspecified) | inconclusive: 6.31 µM [inhibitor, partial curve, poor fit] | 
26 | CCN(CC)CCN(C(=O)c1cc2c(ccc3ccccc32)oc1=O)c1nc2cc3c(cc2s1)OCCO3 | inconclusive: 22.4 µM [inhibitor, single point] | 
27 | CN1/C(=C/C=C(C#N)C#N)C(C)(C)c2ccccc21 |  | inactive: -0.615% [at 46.1 µM]
28 | O=C(NCc1ccco1)c1c(F)c(F)c(F)c(C(=O)NCc2ccco2)c1F |  | inactive: -3.12% [at 46.1 µM]
29 | Cn1c(=O)c2c(nc(NN=C3CCCCC3)n2C)n(C)c1=O |  | inactive: -5.94% [at 46.1 µM]
30 | O=C(O)CC/C(=N\NC(=O)c1ccc(F)cc1)c1ccc(Br)cc1 | inconclusive: 11.2 µM [activator, partial curve, poor fit] | 
31 | COc1ccc(/C=N/NC(=O)c2ccco2)cc1OCc1ccccc1 | inconclusive: 0.562 µM [inhibitor, full curve, poor fit] | 
32 | Cc1ccccc1NC(=O)c1cccc(S(=O)(=O)Nc2cccc(C(=O)O)c2)c1 |  | inactive: -6%
33 | CCc1ccccc1NC(=O)Nc1nnc(N(C)Cc2ccccc2)s1 |  | inactive: 7.76% [at 46.1 µM]
34 | CCOC(=O)C1CCCN(C(=O)c2ccc(Cn3c(=S)[nH]c4cc(C(=O)OC)ccc4c3=O)cc2)C1 (stereo unspecified) | inconclusive: 0.251 µM [inhibitor, full curve, poor fit] | 
35 | O=C1C(=C2CCc3ccccc32)Cc2ccccc21 | inconclusive: 0.501 µM [activator, full curve, poor fit] | 
36 | Cc1cccc(C(=O)Nc2ccccc2NC(=O)c2cccc(C)c2)c1 |  | inactive: -5.24% [at 46.1 µM]
37 | COc1ccc2c(Sc3ccccc3)c(C(=O)NCCCN3CCCCC3)[nH]c2c1 | inconclusive: 7.08 µM [inhibitor, partial curve, poor fit] | 
38 | N#CC(C#N)=C1CCCc2sccc21 |  | inactive: 12.3%
39 | CC1CCCc2sc3nc(NCc4ccco4)n4ncnc4c3c21 (stereo unspecified) | inconclusive: 14.1 µM [activator, single point] | 
40 | CN(C)c1ccc(N=Cc2ccco2)cc1 |  | inactive: -21%
41 | O=C(CSc1ccc(-c2ccccc2)nn1)c1ccccc1 |  | inactive: 11.7%
42 | O=C(Nc1ccc(Cl)c(C(F)(F)F)c1)C1CCCN(S(=O)(=O)c2cnc[nH]2)C1 (stereo unspecified) | inconclusive: 6.51 µM [inhibitor, single point] | 
43 | O=C(NCCCN1CCOCC1)c1cc(-c2cccs2)on1 |  | inactive: 4.87%
44 | CN1CCN(C(=O)CCCN2C(=O)/C(=C/c3ccccc3)SC2=S)CC1 | inconclusive: 10 µM [inhibitor, partial curve, poor fit] | 

From no. 16 up to 30, copied from above:
Row | SMILES | Potency | activity change, negative = inhibition
16 | COc1ccc(Cn2nc(-c3ccccc3)c(N3CCCCC3)cc2=O)cc1 | inconclusive: 7.08 µM [inhibitor, full curve, poor fit] | 
17 | CCN(CC(=O)Nc1c(F)cccc1F)C(=O)COc1ccc2c(c1)CCC2 | inconclusive: 2.24 µM [activator, partial curve, poor fit] | 
18 | Cc1ccsc1/C=N/Nc1nc(=O)[nH]nc1C | inconclusive: 14.1 µM [inhibitor, single point] | 
19 | Cc1ccc(C)c(Cn2c(=O)n(CCC(=O)NCc3ccco3)c(=O)c3ccccc32)c1 | inconclusive: 0.501 µM [activator, partial curve, poor fit] | 
20 | CC(=O)N(C)c1ccc(N=Nc2ccc3ncccc3c2)cc1 | inconclusive: 6.31 µM [inhibitor, full curve, poor fit] | 
21 | CCN1CCN(c2ccc(S(=O)(=O)N3CCCCC3)cc2NC(=O)COc2ccccc2)CC1 | inconclusive: 35.5 µM [inhibitor, single point] | 
22 | CCC(C(=O)O/N=C(\N)c1ccc(C)cc1)c1ccccc1 (stereo unspecified) | inconclusive: 14.1 µM [inhibitor, partial curve, poor fit] | 
23 | COc1ccccc1NC(=S)N(CCN1CCCCCC1)Cc1cccs1 | inconclusive: 11.2 µM [inhibitor, partial curve, poor fit] | 
24 | Cc1ccccc1-c1n[nH]c(=S)n1/N=C/c1c(C)nn(-c2ccccc2)c1C | inconclusive: 17.8 µM [inhibitor, single point] | 
25 | OC(c1cc(C(F)(F)F)nc2c(Cl)cc(Cl)cc12)C1CCCCN1 (stereo unspecified) | inconclusive: 6.31 µM [inhibitor, partial curve, poor fit] | 
26 | CCN(CC)CCN(C(=O)c1cc2c(ccc3ccccc32)oc1=O)c1nc2cc3c(cc2s1)OCCO3 | inconclusive: 22.4 µM [inhibitor, single point] | 
27 | CN1/C(=C/C=C(C#N)C#N)C(C)(C)c2ccccc21 |  | inactive: -0.615% [at 46.1 µM]
28 | O=C(NCc1ccco1)c1c(F)c(F)c(F)c(C(=O)NCc2ccco2)c1F |  | inactive: -3.12% [at 46.1 µM]
29 | Cn1c(=O)c2c(nc(NN=C3CCCCC3)n2C)n(C)c1=O |  | inactive: -5.94% [at 46.1 µM]
30 | O=C(O)CC/C(=N\NC(=O)c1ccc(F)cc1)c1ccc(Br)cc1 | inconclusive: 11.2 µM [activator, partial curve, poor fit] | 

Further compounds:

Row | SMILES | Potency | activity change, negative = inhibition
45 | CC(=O)Nc1ccc(/C(C)=N/NC(=O)c2ccccc2Cl)cc1 | inconclusive: 10 µM [activator, partial curve, poor fit] | 
46 | Cc1ccc(C(=O)OCC(=O)NCc2ccco2)s1 | inconclusive: 15.8 µM [activator, single point] | 
47 | Cc1ccc(-c2nsc(SCC(=O)Nc3ccc4c(c3)OCO4)n2)cc1 | inactive | 
48 | CCOc1cc(CNC(C)(C)C)ccc1OCC(=O)Nc1cccc(C(F)(F)F)c1 | inconclusive: 3.16 µM [inhibitor, single point] | 
49 | COc1cccc(-c2c(-c3cc(OC)cc(OC)c3)n(C)c3ccc(-c4ccc(OC)nc4)cc23)c1 |  | inactive: 0.851%
50 | O=S(=O)(c1ccc(Cl)cc1)N1CCC(O)(CN2CCN(Cc3ccccc3)CC2)CC1 | inconclusive: 35.5 µM [inhibitor, single point] | 
51 | CCCCCCCN1C2=NCCCN2c2ccccc21 | inconclusive: 5.8 µM [inhibitor, partial curve, poor fit] | 
52 | O=C(Cn1c(=O)oc2ccccc21)Nc1nc(-c2ccc(Br)cc2)cs1 | inconclusive: 12.6 µM [inhibitor, single point] | 
53 | CCn1c(SCc2ccc(F)cc2Cl)nnc1-c1nonc1NC(C)=O |  | inactive: 2.12% [at 46.1 µM]
54 | CCOc1ccccc1N(CC(=O)N1CCC(C)CC1)S(=O)(=O)c1ccc(C)cc1 | inconclusive: 28.2 µM [inhibitor, single point] | 
55 | Cc1c(C)c2ccc(OCC(=O)N(C)C)c(C)c2oc1=O | inconclusive: 6.31 µM [activator, single point] | 
56 | CCc1c(C)[nH]c2ccc(C)cc2c1=O | inconclusive: 35.5 µM [inhibitor, single point] | 
57 | CN(c1ccccc1)S(=O)(=O)c1cccc(NC(=O)CSc2nnc(N)s2)c1 | active: 18.4 µM | 
58 | CC(=O)N/C(=C\c1ccccc1)C(=O)Nc1ccc(O)cc1 |  | inactive: 6.37% [at 46.1 µM]
59 | Cc1c(N=Nc2ccc(N(C)C)cc2)c(=O)n(-c2ccccc2)n1C | inconclusive: 7.08 µM [activator, partial curve, poor fit] | 
60 | O=C(COC(=O)C1CC1)Nc1c(Cl)cccc1C(F)(F)F | inconclusive: 12.6 µM [activator, partial curve, poor fit] | 
61 | Cc1ccc(CNC(=O)c2ccc3c(c2)N(Cc2ccccc2)C(=O)c2ccccc2S3(=O)=O)cc1 | inconclusive: 12.6 µM [inhibitor, partial curve, poor fit] | 
62 | COc1ccc(OCC(O)COc2ccc(OC)cc2)cc1 |  | inactive: -0.628%
63 | CCOc1ccccc1N1CC(C(=O)Nc2ccccc2CC)CC1=O (stereo unspecified) | inconclusive: 1 µM [inhibitor, full curve, poor fit] | 
64 | Cc1ccccc1-n1c(C)cc(/C=N/Nc2ccc([N+](=O)[O-])cn2)c1C |  | inactive: -14.9%
65 | COc1cc(SC)ccc1C(=O)Nc1ccccc1 | inconclusive: 2.31 µM [activator, partial curve] | 
66 | O=C(CN1C(=O)CC(c2ccco2)Sc2ccccc21)Nc1ccc(C(F)(F)F)cc1 (stereo unspecified) | inconclusive: 35.5 µM [activator, single point] | 
